Laboratory results: PubChem BioAssay AID743456 (Peter MacCallum Cancer Centre, 2014)

Purpose: 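Identify miRNAs tied to vorinostat resistance or sensitivity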 (primary screen)
System: human HCT116-VR colon cancer cells, a vorinostat-resistant HCT116 line
Reagent: miRNA mimic
Duration: about 3 days from transfection to readout; drug present for the last 24 h
Conditions: vorinostat at 2.5 µM final for 24 h
Measured: 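Per-well live-cell protease fluorescence and caspase luminescence under 2.5 µM vorinostat for 24 h, scored as robust z-scores and against mock transfection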
Scale: viability robust z-score and viability vs mock transfection: higher = more viable cells; caspase robust z-score: higher = more caspase activity, more apoptosis
Call rule: 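Active when viability drops or caspase activity climbs beyond robust z thresholds, with wells of poor cell health excluded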
The whole screen tested 878 reagents; shown is a part drawn at random. Of all reagents, 27 (3.1%) are marked active. 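27 mimics are marked active, unlike an earlier stated count of 24; the viability threshold is described inconsistently.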 Not given: the amount of reagent.

miRNA	viability robust z-score	caspase robust z-score	viability hit class	caspase hit class	viability vs mock transfection	call
hsa-miR-625	-2.47	1.38	no change	no change	0.38	inactive
hsa-let-7f-1*	-0.58	0.32	no change	no change	0.7	inactive
hsa-miR-890	-0.62	-0.16	no change	no change	0.7	inactive
hsa-miR-505*	-0.18	5.22	no change	caspase activation	0.76	active
hsa-miR-302e	0.55	1.5	no change	no change	0.84	inactive
hsa-miR-144*	-0.28	-0.56	no change	no change	0.75	inactive
hsa-miR-320b	0.5	0.26	no change	no change	0.84	inactive
hsa-miR-302c	0.78	1.86	no change	no change	0.92	inactive
hsa-miR-1977	-0.03	1.75	no change	no change	0.78	inactive
hsa-miR-499-3p	-0.32	2.04	no change	no change	0.69	inactive
hsa-miR-517a	-1.12	3.56	no change	no change	0.6	inactive
hsa-miR-24-1*	0.15	2.41	no change	no change	0.82	inactive
hsa-miR-361-3p	0.03	-0.32	no change	no change	0.76	inactive
hsa-miR-453	-2.33	6.8	no change	caspase activation	0.4	active
hsa-miR-1268	1.21	-0.3	no change	no change	1	inactive
hsa-miR-1284	0.94	-0.7	no change	no change	0.92	inactive
hsa-miR-548e	1.48	-0.1	no change	no change	1.03	inactive
hsa-miR-22	-0.07	0.65	no change	no change	0.74	inactive
hsa-miR-132	-0.16	-0.38	no change	no change	0.76	inactive
hsa-miR-1826	0.85	-0.58	no change	no change	0.93	inactive
hsa-miR-568	0.74	-0.52	no change	no change	0.91	inactive
hsa-miR-221	1.72	1.38	no change	no change	1.06	inactive
hsa-miR-506	-1.48	-0.3	no change	no change	0.54	inactive
hsa-miR-520h	0.34	-0.26	no change	no change	0.81	inactive
hsa-miR-299-5p	0.08	6.86	no change	caspase activation	0.76	active
hsa-miR-196a	-1.02	-0.25	no change	no change	0.62	inactive
hsa-miR-520a-5p	-0.05	-0.86	no change	no change	0.79	inactive
hsa-miR-548n	0.89	-0.2	no change	no change	0.94	inactive
hsa-miR-1	0.44	-0.38	no change	no change	0.86	inactive
hsa-miR-208b	-0.05	2.4	no change	no change	0.78	inactive

5 neighbouring records already listed, quoted:
miRNA	viability robust z-score	caspase robust z-score	viability hit class	caspase hit class	viability vs mock transfection	call
hsa-miR-453	-2.33	6.8	no change	caspase activation	0.4	active
hsa-miR-1268	1.21	-0.3	no change	no change	1	inactive
hsa-miR-1284	0.94	-0.7	no change	no change	0.92	inactive
hsa-miR-548e	1.48	-0.1	no change	no change	1.03	inactive
hsa-miR-22	-0.07	0.65	no change	no change	0.74	inactive

The results go on:
miRNA	viability robust z-score	caspase robust z-score	viability hit class	caspase hit class	viability vs mock transfection	call
hsa-miR-802	-1.38	-0.44	no change	no change	0.55	inactive
hsa-miR-200c*	-0.38	1.82	no change	no change	0.72	inactive
hsa-miR-934	-0.9	3.42	no change	no change	0.66	inactive
hsa-miR-125b-1*	0.55	0.9	no change	no change	0.88	inactive
hsa-miR-504	1.06	-0.28	no change	no change	0.94	inactive
hsa-miR-1253	0.3	1.56	no change	no change	0.84	inactive
hsa-miR-431	0.12	0.99	no change	no change	0.76	inactive
hsa-miR-493*	0.31	2.74	no change	no change	0.8	inactive
hsa-miR-510	-0.88	-0.14	no change	no change	0.66	inactive
hsa-miR-1909	-0.61	1.46	no change	no change	0.7	inactive
hsa-miR-1205	-1.87	0.56	no change	no change	0.42	inactive
hsa-miR-188-3p	-0.92	-0.42	no change	no change	0.58	inactive
hsa-miR-1825	1.02	-0.42	no change	no change	0.96	inactive
hsa-miR-100*	0.1	-0.21	no change	no change	0.76	inactive
hsa-miR-1305	0.65	-0.46	no change	no change	0.9	inactive
hsa-miR-107	0.48	-0.18	no change	no change	0.84	inactive
hsa-miR-623	0.62	-0.47	no change	no change	0.86	inactive
hsa-miR-770-5p	1.38	-0.43	no change	no change	1	inactive
hsa-miR-601	-0.4	2.32	no change	no change	0.74	inactive
hsa-miR-329	-0.19	2.91	no change	no change	0.76	inactive
